Measurements published in patent US20240044046A1, “PROTEIN THERAPEUTICS FOR TREATMENT OF SENESCENT CELLS” (BioAtla, Inc., priority 2017, published 2024).
“Also recorded” adds a separate entry of the source. At least one compound was matched to its structure with a doubt left.

Experiments:
Format in all cases: cell-based
MCF-7 cells [1] = assay: Induction of senescent cells (microscopy, SA-B-gal, FACS)
MDA-MB231 cells [2] = assay: Senescence target expression profile by FACS
MDA-MB468 cells [3] = assay: Induction of senescent cells (microscopy, B-gal staining, FACS)
MCF-7 cells [4] = assay: Senescence target expression profile by FACS
MDA-MB468 cells [5] = assay: Senescence target expression profile by FACS
T47D cells [6] = assay: Senescence associated beta-galactosidase assay; details: 3 μM Palbociclib Isethionate, 6 days
MDA-MB231 cells [7] = assay: Induction of senescent cells (microscopy, B-gal staining, FACS); details: 1 uM Palbociclib, 7 days
T47D cells [8] = assay: Senescence target expression profile by FACS; details: 3 μM Palbociclib Isethionate, 6 days; targets CD73, B7H3, B7H4, CD54, DPP4
[9] = 3 μM Palbociclib Isethionate, 6 days
[10] = 1 uM Palbociclib, 7 days, Targets 1-6 = CD54, CD73, CD261, CD95, CD39, Nectin 4
[11] = Palbociclib treatment, Example 16
[12] = 3 μM Palbociclib Isethionate, 6 days, targets CD73, B7H3, B7H4, CD54, DPP4

CC(=O)c1c(C)c2cnc(Nc3ccc(N4CCNCC4)cn3)nc2n(C2CCCC2)c1=O [Palbociclib, Palbociclib Isethionate]
induction of senescent cells (MCF-7 cells [1]; 1 uM Palbociclib, 7 days): induced the cells to become senescent cells | induction of senescent cells (SA β-gal staining) (MCF-7 cells [1]; [9]): induced these types of cells to become senescent cells | target expression profile treated vs untreated cells (MDA-MB231 cells [2]; [10]): Targets 1 and 2 exhibited a significantly higher expression level | CD73 expression level after treatment (MDA-MB231 cells [2]; [11]): significantly increased the expression level of CD73 | induction of senescent cells (MDA-MB468 cells [3]; 1 uM Palbociclib, 7 days): did not induce the control cells to become senescent cells; also recorded: did not induce a significant number of senescent cells | induction of senescent cells (SA β-gal staining) (MDA-MB468 cells [3]; [9]): not responsive | target expression profile treated vs untreated cells (MCF-7 cells [4]; [10]): Targets 1, 2, and 6 were more abundantly expressed | target expression treated vs untreated cells (MCF-7 cells [4]; [12]): Target 1 (CD73) and Target 2 (B7H3) were more abundantly expressed | FACS and target profile treated vs untreated cells (MDA-MB468 cells [5]; [10]): did not show any significant differences | target expression treated vs untreated cells (MDA-MB468 cells [5]; [12]): low target expression or no increase in target expression | CD73 expression level after treatment (MDA-MB468 cells [5]; [11]): did not significantly increase the expression level of CD73 | induction of senescent cells (SA β-gal staining) (T47D cells [6]): induced these types of cells to become senescent cells | induction of senescent cells (MDA-MB231 cells [7]): induced the cells to become senescent cells; also recorded: about the same number of B-gal negative cells and B-gal positive cells | target expression treated vs untreated cells (T47D cells [8]): Target 3 (B7H4) and target 4 (CD54) were more abundantly expressed
